Data reported in article doi:10.1101/2022.11.24.517835.

By UniProt entry, the sequences of proteins in these tests, tags left out.
UniProt Q6EVK6: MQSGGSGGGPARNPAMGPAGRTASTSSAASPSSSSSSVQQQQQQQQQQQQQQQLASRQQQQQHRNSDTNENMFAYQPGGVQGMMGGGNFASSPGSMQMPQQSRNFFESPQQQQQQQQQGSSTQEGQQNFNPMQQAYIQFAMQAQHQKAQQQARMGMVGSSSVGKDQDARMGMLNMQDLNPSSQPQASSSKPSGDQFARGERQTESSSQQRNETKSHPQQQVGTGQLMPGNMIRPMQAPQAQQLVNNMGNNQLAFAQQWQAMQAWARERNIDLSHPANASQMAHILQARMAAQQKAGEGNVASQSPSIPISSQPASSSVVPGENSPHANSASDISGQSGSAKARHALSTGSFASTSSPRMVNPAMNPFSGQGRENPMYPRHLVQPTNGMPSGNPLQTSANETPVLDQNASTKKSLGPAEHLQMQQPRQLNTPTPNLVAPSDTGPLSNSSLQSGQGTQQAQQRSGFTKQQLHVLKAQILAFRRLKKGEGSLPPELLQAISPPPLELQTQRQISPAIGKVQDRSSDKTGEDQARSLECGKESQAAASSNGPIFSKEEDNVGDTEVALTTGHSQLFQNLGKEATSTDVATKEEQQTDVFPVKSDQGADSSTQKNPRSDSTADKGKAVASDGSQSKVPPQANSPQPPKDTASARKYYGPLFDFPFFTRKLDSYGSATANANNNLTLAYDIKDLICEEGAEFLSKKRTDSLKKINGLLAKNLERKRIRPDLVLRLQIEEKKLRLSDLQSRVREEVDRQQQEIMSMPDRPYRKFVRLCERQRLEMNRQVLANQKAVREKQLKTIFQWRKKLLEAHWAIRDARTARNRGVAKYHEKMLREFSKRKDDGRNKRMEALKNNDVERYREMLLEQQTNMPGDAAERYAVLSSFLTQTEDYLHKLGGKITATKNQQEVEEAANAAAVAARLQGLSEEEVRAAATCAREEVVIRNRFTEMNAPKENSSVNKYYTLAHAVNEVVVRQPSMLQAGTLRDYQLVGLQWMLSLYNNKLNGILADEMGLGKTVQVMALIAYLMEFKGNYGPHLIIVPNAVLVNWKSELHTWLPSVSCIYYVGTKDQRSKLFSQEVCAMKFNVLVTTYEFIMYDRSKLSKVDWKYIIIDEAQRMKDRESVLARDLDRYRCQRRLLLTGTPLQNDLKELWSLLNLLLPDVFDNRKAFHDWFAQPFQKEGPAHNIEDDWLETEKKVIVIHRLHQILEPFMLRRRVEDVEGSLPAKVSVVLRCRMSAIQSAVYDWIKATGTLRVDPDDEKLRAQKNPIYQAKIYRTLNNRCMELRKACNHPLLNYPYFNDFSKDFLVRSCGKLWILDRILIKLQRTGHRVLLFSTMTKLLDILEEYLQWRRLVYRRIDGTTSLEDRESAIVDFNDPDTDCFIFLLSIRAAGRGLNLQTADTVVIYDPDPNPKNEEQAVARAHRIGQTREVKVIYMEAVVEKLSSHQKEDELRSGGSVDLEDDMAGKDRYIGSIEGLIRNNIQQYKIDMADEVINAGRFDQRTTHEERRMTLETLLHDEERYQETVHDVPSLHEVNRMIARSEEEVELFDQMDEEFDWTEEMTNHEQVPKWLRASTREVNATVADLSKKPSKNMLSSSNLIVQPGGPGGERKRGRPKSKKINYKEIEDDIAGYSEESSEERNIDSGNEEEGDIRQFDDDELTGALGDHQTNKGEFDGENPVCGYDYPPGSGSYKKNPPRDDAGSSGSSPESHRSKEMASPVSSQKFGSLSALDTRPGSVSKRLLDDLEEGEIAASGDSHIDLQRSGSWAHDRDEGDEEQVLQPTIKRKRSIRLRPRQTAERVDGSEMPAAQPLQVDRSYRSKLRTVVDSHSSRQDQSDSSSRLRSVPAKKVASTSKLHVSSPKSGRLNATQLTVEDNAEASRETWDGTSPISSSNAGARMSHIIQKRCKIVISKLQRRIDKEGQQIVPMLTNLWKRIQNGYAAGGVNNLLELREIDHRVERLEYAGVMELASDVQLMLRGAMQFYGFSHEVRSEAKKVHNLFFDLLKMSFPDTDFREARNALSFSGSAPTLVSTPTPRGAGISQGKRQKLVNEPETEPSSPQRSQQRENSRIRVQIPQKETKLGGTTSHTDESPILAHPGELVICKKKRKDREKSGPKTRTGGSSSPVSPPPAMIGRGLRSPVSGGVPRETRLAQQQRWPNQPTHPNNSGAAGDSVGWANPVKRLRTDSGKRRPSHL

T1: MINUSCULE 2 (MINU2)-GFP (Arabidopsis thaliana) (UniProt F4K128)
T1 sequence: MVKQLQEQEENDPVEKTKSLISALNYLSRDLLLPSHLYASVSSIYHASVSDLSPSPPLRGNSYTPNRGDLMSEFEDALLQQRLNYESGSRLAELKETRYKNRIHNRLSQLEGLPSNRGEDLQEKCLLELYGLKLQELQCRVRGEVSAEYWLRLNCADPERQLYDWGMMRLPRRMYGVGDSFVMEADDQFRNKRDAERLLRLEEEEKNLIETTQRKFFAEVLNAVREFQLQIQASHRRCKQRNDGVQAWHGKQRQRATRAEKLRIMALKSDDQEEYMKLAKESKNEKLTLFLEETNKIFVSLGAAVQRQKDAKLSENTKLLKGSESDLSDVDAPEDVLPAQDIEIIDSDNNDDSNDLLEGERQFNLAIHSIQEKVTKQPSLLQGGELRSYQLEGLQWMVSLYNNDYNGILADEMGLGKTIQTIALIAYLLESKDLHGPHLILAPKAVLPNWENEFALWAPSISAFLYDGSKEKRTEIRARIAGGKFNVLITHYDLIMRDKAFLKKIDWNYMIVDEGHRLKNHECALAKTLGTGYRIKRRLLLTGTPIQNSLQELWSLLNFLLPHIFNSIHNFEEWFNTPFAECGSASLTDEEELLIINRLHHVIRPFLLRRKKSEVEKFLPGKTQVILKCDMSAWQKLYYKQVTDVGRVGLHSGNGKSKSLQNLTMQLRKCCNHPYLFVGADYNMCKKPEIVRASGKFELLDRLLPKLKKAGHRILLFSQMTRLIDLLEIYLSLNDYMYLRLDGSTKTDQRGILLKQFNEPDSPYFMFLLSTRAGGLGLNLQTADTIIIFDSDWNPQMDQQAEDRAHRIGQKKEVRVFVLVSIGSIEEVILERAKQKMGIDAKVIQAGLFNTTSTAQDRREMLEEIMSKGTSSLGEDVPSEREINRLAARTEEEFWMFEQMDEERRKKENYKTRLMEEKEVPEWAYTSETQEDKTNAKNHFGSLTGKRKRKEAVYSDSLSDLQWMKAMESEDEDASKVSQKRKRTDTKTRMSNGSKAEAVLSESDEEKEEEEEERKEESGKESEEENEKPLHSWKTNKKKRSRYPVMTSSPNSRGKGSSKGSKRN


Experiments:
Assay in all cases: affinity purification with mass spectrometry
[1] = molecular target: T1, MINUSCULE 2 (MINU2)-GFP (Arabidopsis thaliana)
[2] = molecular target: BRAHMA (BRM)-GFP (Arabidopsis thaliana) (UniProt Q6EVK6)
[3] = molecular target: BRAHMA (BRM)-GFP (Arabidopsis thaliana), Q6EVK6; details: remark: other sources report otherwise

Binder	binding [1]	binding [2]	binding [3]
SWI3C (protein, UniProt Q9XI07 1-807) MPASEDRRGKWKRKKRGGLSAARKPKQEEEDMEEEDEENNNNNNEEMDDVENADELQQNGGATPDPGLGIGEVVEDSGSRISDFPAVVKRVVIRPHASVMAVVAAERAGLIGETRGQGSLPALENISFGQLQALSTVPADSLDLERSDGSSSAYVISPPPIMDGEGVVKRFGDLVHVLPMHSDWFAPNTVDRLERQVVPQFFSGKSPNHTPESYMEFRNAIVSKYVENPEKTLTISDCQGLVDGVDIEDFARVFRFLDHWGIINYCATAQSHPGPLRDVSDVREDTNGEVNVPSAALTSIDSLIKFDKPNCRHKGGEVYSSLPSLDGDSPDLDIRIREHLCDSHCNHCSRPLPTVYFQSQKKGDILLCCDCFHHGRFVVGHSCLDFVRVDPMKFYGDQDGDNWTDQETLLLLEAVELYNENWVQIADHVGSKSKAQCILHFLRLPVEDGLLDNVEVSGVTNTENPTNGYDHKGTDSNGDLPGYSEQGSDTEIKLPFVKSPNPVMALVAFLASAVGPRVAASCAHESLSVLSEDDRMKSEGMQGKEASLLDGENQQQDGAHKTSSQNGAEAQTPLPQDKVMAAFRAGLSAAATKAKLFADHEEREIQRLSANIVNHQLKRMELKLKQFAEIETLLMKECEQVEKTRQRFSAERARMLSARFGSPGGISPQTNNLQGMSLSTGGNNINSLMHQQHQQQQASATSQPSIIPGFSNNPQVQAQMHFMARQQQQQQQQQQQQQQAFSFGPRLPLNAIQTNAGSTASPNVMFGNNQLNNPAAAGAASINQPSFSHPMVRSSTGSGSGSGLGLN	no binding	binds	
LEAF AND FLOWER RELATED (LFR) (protein, UniProt Q9LS90 1-460) MQKRELGKSGGNSGGSSGPPAKRGRPFGSTSANSAAAAAAAAAADAMSPSALLGPSLLVHNSFVEQNNRRIVLALQSGLKSEVTWALNTLTLLSFKEKEDIRRDVMPLAKIAGLLDALLLIIDDWRDIALPKDLTRGTRVRTLGTNASVTGFGNEYDALASIQPPGSGIGSSAAEALGKKSTGKHQSSQWWMEEDGLFNLDDEGRSEKQMCAIAASNVIRNFSFMPDNEVVMAQHRHCLETVFQCIHDHMTEDEELVTNSLETIVNLAHLMDLRIFSSLKQSYININEKKAVQAVVGILNSSVKAWNCAAAELLGRLIINPDNEPFISPLIPQIHKRLIDLLSIQAVDAQAAAVGALYNLVEVNMDCRLKLASERWAVDRLLKVIKTPHPVPEVCRKAAMILENLVSEPQNRGLLLAYENAFAELLFQEGKYSDSFARILYELTARSNSRVASARGIWGM		no binding	
SWI3A, Q8W475 1-512 (protein) MEATDPSAEIELYTIPAQSSWFLWDDIHEIERREFAEFFTESSITRTPKVYKEYRDFIINKFREDTCRRLTFTSVRKFLVGDVNLLQKVFLFLEKWGLINFSSSLKKNDHLLSVDNAKIEQGTPAGIRVTATPNSLRPITAPPLVEERVETGIKVPPLTSYSDVFSDLKKPDHVLVCAHCGERCDSPFYQHNKGIVNICEKCFKNGNYGENNTADDFKLIGNSAAAVWTEEEILLLLESVLKHGDDWELISQSVSTKSRLDCISKLIELPFGEFLMGSASGRLNPSILTEDENTEQVQTDGQEHEETETREEKEDRVNEDEPPAKRKRVALISEGDSSLMKQVAAMASKVGPSVATAAAKAALAALCDEASCPKEIFDTDDYSNFTVDRANGEKDTDMEEQQEEKDGPQGLPVALRIRASVATALGAAAAQAKILADQEEREMEQLAATVIEQQLKKLQSKLKFLDDLESIMDEEEKVIEGVKETIIQERVSVLQCAFRSGITKRWDHTYVK			no binding
SWI3B, Q84JG2 1-469 (protein) MAMKAPDPGGSGEILPSTPSLSETTSGGAAAASKSAQLPSSSSDIDNIHVPSYSSWFSWTDINDCEVRSLPEFFDSRSSSKNPKFYLYLRNSIIKQYRDDHPRKISFTDVRRTLVSDVVSIRRVFDFLDSWGLINYNSSASAKPLKWEEKEAGKSAGDAASEPATTVKETAKRNCNGCKAICSIACFACDKYDLTLCARCYVRSNYRVGINSSEFKRVEISEESKPEWSDKEILLLLEAVMHYGDDWKKVASHVIGRTEKDCVSQFVKLPFGEQFVKESDSEDGLEMFDQIKDSDIPESEGIDKDGSSPNKRIKLTPLADASNPIMAQAAFLSALAGTNVAEAAARAAVRALSDVDYEADKNASRDPNRQDANAASSGETTRNESERAWADAKSLIEKEEHEVEGAIKETVEVEMKKIRDRIVHFEKLDLEMERSRKQLEEVRNLLFVDQLNIFFHTRKARKTEDRIEC			no binding
SWI3D, Q8VY05 1-985 (protein) MEEKRRDSAGTLAFAGSSGDSPASEPMPAPRRRGGGLKRKANALGGSNFFSSAPSKRMLTREKAMLASFSPVHNGPLTRARQAPSIMPSAADGVKSEVLNVAVGADGEKPKEEEERNKAIREWEALEAKIEADFEAIRSRDSNVHVVPNHCGWFSWEKIHPLEERSLPSFFNGKLEGRTSEVYREIRNWIMGKFHSNPNIQIELKDLTELEVGDSEAKQEVMEFLDYWGLINFHPFPPTDTGSTASDHDDLGDKESLLNSLYRFQVDEACPPLVHKPRFTAQATPSGLFPDPMAADELLKQEGPAVEYHCNSCSADCSRKRYHCPKQADFDLCTECFNSGKFSSDMSSSDFILMEPAEAPGVGSGKWTDQETLLLLEALEIFKENWNEIAEHVATKTKAQCMLHFLQMPIEDAFLDQIDYKDPISKDTTDLAVSKDDNSVLKDAPEEAENKKRVDEDETMKEVPEPEDGNEEKVSQESSKPGDASEETNEMEAEQKTPKLETAIEERCKDEADENIALKALTEAFEDVGHSSTPEASFSFADLGNPVMGLAAFLVRLAGSDVATASARASIKSLHSNSGMLLATRHCYILEDPPDNKKDPTKSKSCSADAEGNDDNSHKDDQPEEKSKKAEEVSLNSDDREMPDTDTGKETQDSVSEEKQPGSRTENSTTKLDAVQEKRSSKPVTTDNSEKPVDIICPSQDKCSGKELQEPLKDGNKLSSENKDASQSTVSQSAADASQPEASRDVEMKDTLQSEKDPEDVVKTVGEKVQLAKEEGANDVLSTPDKSVSQQPIGSASAPENGTAGGNPNIEGKKEKDICEGTKDKYNIEKLKRAAISAISAAAVKAKNLAKQEEDQIRQLSGSLIEKQLHKLEAKLSIFNEAESLTMRVREQLERSRQRLYHERAQIIAARLGVPPSMSSKASLPTNRIAANFANVAQRPPMGMAFPRPPMPRPPGFPVPGSFVAATTMTGSSDPSPGSDNVSSV			no binding
MINUSCULE 2 (MINU2) (protein, UniProt F4K128 1-1064) MVKQLQEQEENDPVEKTKSLISALNYLSRDLLLPSHLYASVSSIYHASVSDLSPSPPLRGNSYTPNRGDLMSEFEDALLQQRLNYESGSRLAELKETRYKNRIHNRLSQLEGLPSNRGEDLQEKCLLELYGLKLQELQCRVRGEVSAEYWLRLNCADPERQLYDWGMMRLPRRMYGVGDSFVMEADDQFRNKRDAERLLRLEEEEKNLIETTQRKFFAEVLNAVREFQLQIQASHRRCKQRNDGVQAWHGKQRQRATRAEKLRIMALKSDDQEEYMKLAKESKNEKLTLFLEETNKIFVSLGAAVQRQKDAKLSENTKLLKGSESDLSDVDAPEDVLPAQDIEIIDSDNNDDSNDLLEGERQFNLAIHSIQEKVTKQPSLLQGGELRSYQLEGLQWMVSLYNNDYNGILADEMGLGKTIQTIALIAYLLESKDLHGPHLILAPKAVLPNWENEFALWAPSISAFLYDGSKEKRTEIRARIAGGKFNVLITHYDLIMRDKAFLKKIDWNYMIVDEGHRLKNHECALAKTLGTGYRIKRRLLLTGTPIQNSLQELWSLLNFLLPHIFNSIHNFEEWFNTPFAECGSASLTDEEELLIINRLHHVIRPFLLRRKKSEVEKFLPGKTQVILKCDMSAWQKLYYKQVTDVGRVGLHSGNGKSKSLQNLTMQLRKCCNHPYLFVGADYNMCKKPEIVRASGKFELLDRLLPKLKKAGHRILLFSQMTRLIDLLEIYLSLNDYMYLRLDGSTKTDQRGILLKQFNEPDSPYFMFLLSTRAGGLGLNLQTADTIIIFDSDWNPQMDQQAEDRAHRIGQKKEVRVFVLVSIGSIEEVILERAKQKMGIDAKVIQAGLFNTTSTAQDRREMLEEIMSKGTSSLGEDVPSEREINRLAARTEEEFWMFEQMDEERRKKENYKTRLMEEKEVPEWAYTSETQEDKTNAKNHFGSLTGKRKRKEAVYSDSLSDLQWMKAMESEDEDASKVSQKRKRTDTKTRMSNGSKAEAVLSESDEEKEEEEEERKEESGKESEEENEKPLHSWKTNKKKRSRYPVMTSSPNSRGKGSSKGSKRN		no binding	

No constants are given. Whether binding was seen depends on the method and setting. Binding seen in cells or lysates may run through a third protein. Here binding means that the protein was enriched with, or labelled near, the bait; the list need not be complete. No binding means not detected with the bait. For some of these results: Where a sequence is shown, tags or fusion partners need not be part of it.
